Source: paper PMC7819943, “Rice protein-binding microarrays: a tool to detect cis-acting elements near promoter regions in rice”
The other results are listed elsewhere or left out.

By UniProt entry, the sequences of proteins in these tests, tags left out.
UniProt Q0JBA9, entry or part of it: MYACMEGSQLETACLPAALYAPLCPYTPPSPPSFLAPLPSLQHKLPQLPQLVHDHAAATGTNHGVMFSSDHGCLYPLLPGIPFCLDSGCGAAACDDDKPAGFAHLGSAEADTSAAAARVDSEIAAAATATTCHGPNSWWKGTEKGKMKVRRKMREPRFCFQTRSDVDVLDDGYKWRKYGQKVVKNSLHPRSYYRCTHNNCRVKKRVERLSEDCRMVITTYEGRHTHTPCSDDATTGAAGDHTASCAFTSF

These sequences were tested against OsWRKY34 (Oryza sativa, UniProt Q0JBA9 1-250) (assay: protein-binding microarray (RPBM); PBS, 2% BSA, 51.3 ng/ul salmon testes DNA, 50 uM zinc acetate, 200 nM TF, 25 C, 1 h; high values mean tight binding). Conditions: protein: recombinant; tags: N-terminal polyhistidine and DsRed monomer fusion (pET32a); label: CyDye5-dUTP incorporated in the synthesized complementary strand; 3' TTTTT single-stranded linker to array surface; dsDNA, one strand shown.
How it was run: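 Binding signal is reported as fluorescence intensity per feature (arbitrary units) from an Axon 4000B scanner. Incubation used 200 nM of each Ni–NTA-purified, N-terminally polyhistidine- and DsRed-fused transcription factor from E. coli BL21-CodonPlus on a double-stranded custom Agilent array for 1 h at 25 °C, with 50 µM zinc acetate in the buffer, followed by washing.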
“GGAGTATTAGCTAGTCATCATTTGTTCTCTTCACCGACCGCGGAGTCACCTAGTGCAG” was tested, and the binding signal was 8270 fluorescence intensity (a.u.).
In the case of “AGCCAGCTATTATTACCAATTCTTTGCAATTTGGGCTAGTCGGAGTCACCTAGTGCAG”, the binding signal is reported as 9030 fluorescence intensity (a.u.).
In the case of “CACAGCGTTAGCTTCGTCCACCCAATTTGACTTTCCAATGCGGAGTCACCTAGTGCAG”, the binding signal is reported as 9790 fluorescence intensity (a.u.).
With “ATTTCCCTTCCCTTTCTTTCTTTCTTTCTTTCTTTCTTTCCGGAGTCACCTAGTGCAG” the binding signal was 10500 fluorescence intensity (a.u.).
With “AATTTCTTTAATTATCCATAGATAGCTTTCCTTGTTTCTTCGGAGTCACCTAGTGCAG” the binding signal was 9280 fluorescence intensity (a.u.).
For “GTTGTCTTCTCCTATATAAGCTAAGATACTCTTCCACTCTCGGAGTCACCTAGTGCAG”, the binding signal was 8300 fluorescence intensity (a.u.).
With “GCCCCACCGCCACCGCCACCGCCCACGCCGCCGCTCCATGCGGAGTCACCTAGTGCAG” the binding signal was 9770 fluorescence intensity (a.u.).
In the case of “GATCAGGGAGCTCGTTGACTTCACAGTGGATTGCCACACCCGGAGTCACCTAGTGCAG”, the binding signal is reported as 8690 fluorescence intensity (a.u.).
For “TCCAGGCTCGCCCTCGTTCCTCTCTCTCTCTCCTCGCAAACGGAGTCACCTAGTGCAG”, the binding signal was 10700 fluorescence intensity (a.u.).
In the case of “ACGGCGAGAGGTGGCTCGGTTTCGGTTTGACCGTTTTGGGCGGAGTCACCTAGTGCAG”, the binding signal is reported as 11000 fluorescence intensity (a.u.).
In the case of “ACGGGGATGACTCCGATGACTCTCCTGGCCTCGCCGCCTCCGGAGTCACCTAGTGCAG”, the binding signal is reported as 8120 fluorescence intensity (a.u.).
For “GACAGCTTCTTCCCGCGCCGGCGCCTCCGGCCGCTTCTCCCGGAGTCACCTAGTGCAG”, the binding signal was 9070 fluorescence intensity (a.u.).
“CTGGTTGGTTCTCCCTTAGTTGATGCCAAACCATAACTTCCGGAGTCACCTAGTGCAG” was tested, and the binding signal was 9620 fluorescence intensity (a.u.).
With “TTAAAAGGGAATTTATGTTATTTGTTCGGTTGTGGGTTTTCGGAGTCACCTAGTGCAG” the binding signal was 8380 fluorescence intensity (a.u.).
For “AGGTGTCATCTAGTTTTGCTTGTATAGCTAACCCCACACTCGGAGTCACCTAGTGCAG”, the binding signal was 8680 fluorescence intensity (a.u.).
In the case of “TATTAGTTAGTATGGATTCACCATTTATTGACCATTTTGCCGGAGTCACCTAGTGCAG”, the binding signal is reported as 8690 fluorescence intensity (a.u.).
In the case of “TAAATTTGATTCCATTTCCGTTGCCTGTTCATTTCGTCGACGGAGTCACCTAGTGCAG”, the binding signal is reported as 8300 fluorescence intensity (a.u.).
For “AACTCCTAGGCTGTGTTTGTATAACGATGCGTTTTTTACACGGAGTCACCTAGTGCAG”, the binding signal was 8350 fluorescence intensity (a.u.).
“CTCTCTCTCTCTCTCTCTCTATATCTATCTCCGTTGCTTCCGGAGTCACCTAGTGCAG” was tested, and the binding signal was 12700 fluorescence intensity (a.u.).
For “GAGAGCGAGGGGTTGGTGGTGGTGTAGGGTTTTAGTTTACCGGAGTCACCTAGTGCAG”, the binding signal was 9600 fluorescence intensity (a.u.).
In the case of “GCTCATACTTGTTGTTCACGGACCTGTTTAAGCTACACTACGGAGTCACCTAGTGCAG”, the binding signal is reported as 11100 fluorescence intensity (a.u.).
“TATATGGTGGTATCGGCCGCTTTGGTTTCTCTAGTTCACTCGGAGTCACCTAGTGCAG” was tested, and the binding signal was 12000 fluorescence intensity (a.u.).
For “CTGTAAAGTTTTATTTATATCGTGCTTTAACTTTTGATTGCGGAGTCACCTAGTGCAG”, the binding signal was 8410 fluorescence intensity (a.u.).
For “TCTTGTGTACATATATGTCATTTAGGGCCAAATCAATACACGGAGTCACCTAGTGCAG”, the binding signal was 8420 fluorescence intensity (a.u.).
“TTTTGCTGTGGTGGGAGTGGATTTGGAGGGCGTATCGGGGCGGAGTCACCTAGTGCAG” was tested, and the binding signal was 15600 fluorescence intensity (a.u.).
In the case of “ACCTGATCATCATGCACGCACCTAGCTTAGCTTAGCTGTCCGGAGTCACCTAGTGCAG”, the binding signal is reported as 8060 fluorescence intensity (a.u.).
With “TCCTCTTCTGTTTTTCTGTTTTTTTTCGTTTCTCTTCCCTCGGAGTCACCTAGTGCAG” the binding signal was 13300 fluorescence intensity (a.u.).
“GTGAAGGTTGTATTTGCGTGGATTGGAGGGGAAGCAGTGACGGAGTCACCTAGTGCAG” was tested, and the binding signal was 9290 fluorescence intensity (a.u.).
In the case of “CATTCTCTAATCTTCCTTCCACCATTGCCTTTTGATCTTCCGGAGTCACCTAGTGCAG”, the binding signal is reported as 10100 fluorescence intensity (a.u.).
With “GGTTCATTTATACTTATTGCTTGTGTTTAGTTACAGGATACGGAGTCACCTAGTGCAG” the binding signal was 9240 fluorescence intensity (a.u.).
In the case of “AGATTACGCCGTTAACTTTTTCTCACATGTTTGACCATTCCGGAGTCACCTAGTGCAG”, the binding signal is reported as 11000 fluorescence intensity (a.u.).
With “AGATACTATCCTTGAATTTGATCTCTGCCTTTTCATATTACGGAGTCACCTAGTGCAG” the binding signal was 9410 fluorescence intensity (a.u.).
For “AGAGTTTTTTTTTTCTTTGAAGTTTGGTCAAGTTTTTTCACGGAGTCACCTAGTGCAG”, the binding signal was 8580 fluorescence intensity (a.u.).
With “TGCTCTGGATGTCTTCTTTTTGCGGGCTTTGAATGTTGGGCGGAGTCACCTAGTGCAG” the binding signal was 8540 fluorescence intensity (a.u.).
With “ATCGTGGACTTCTCTTAATCCCATCACCACCACTACCCGCCGGAGTCACCTAGTGCAG” the binding signal was 10000 fluorescence intensity (a.u.).
“GATTACATTTTTCAAACATTTTCGCTTTCGATCCACAGCTCGGAGTCACCTAGTGCAG” was tested, and the binding signal was 9790 fluorescence intensity (a.u.).
For “ATGTAAGTCATTCTAGCATTTCCCACATTTATATTGATGCCGGAGTCACCTAGTGCAG”, the binding signal was 9580 fluorescence intensity (a.u.).
In the case of “TAATACTTTATGCGTGACTTATCTTTTTAAATTTTTTTCACGGAGTCACCTAGTGCAG”, the binding signal is reported as 8970 fluorescence intensity (a.u.).
With “TGCATAACTTGTACCGTCCTGACAATATACCGTTTCATAGCGGAGTCACCTAGTGCAG” the binding signal was 8440 fluorescence intensity (a.u.).
For “CTTCTGGGAGACTGCTCGTTCTTTCGTACGACTCGTCATTCGGAGTCACCTAGTGCAG”, the binding signal was 9760 fluorescence intensity (a.u.).
For “GCGCTGCGTCTTTTGACCAACCCAGTCGTTGACCCAAGACCGGAGTCACCTAGTGCAG”, the binding signal was 13900 fluorescence intensity (a.u.).
With “TCGTTTCAAAATACTTGACACCGTTGACTTTTTAGTACGTCGGAGTCACCTAGTGCAG” the binding signal was 23300 fluorescence intensity (a.u.).
